The record followed here is the supplement of paper PMC9744312.

Structures can show the parent of a compound that is named as a salt. The list shows a part of the results. The data scatter; read single values as rough.

The subject of the experiment is Peyronie's disease tunica albuginea primary fibroblasts. Briefly: cell viability (DRAQ5 nuclear stain) relative to TGF-beta1-only control; higher = more viable cells. Conditions: 10 µM; TGF-beta1 10 ng/mL; 72 h.
In the case of `O=C1O[C@H]([C@@H](O)CO)C(O)=C1O` [Vitamin C], the cell viability (usually a read-out of living cells in per cent, often relative to untreated cells) turned out to be 81.6%.

In the case of `Clc1ccc(C(c2ccccc2Cl)C(Cl)Cl)cc1` (centres undefined) [Mitotane], the cell viability amounted to 98.3%.

Regarding `CCCCN1CCCC[C@H]1C(=O)Nc1c(C)cccc1C` [Levobupivacaine HCl], the cell viability stood at 88.4%.

With `O=C1Nc2ccc(Cl)cc2[C@@](C#CC2CC2)(C(F)(F)F)O1` [Efavirenz], the cell viability is 90.3%.

Consider `Nc1ccc(C(=O)O)c(O)c1` [Sodium 4-Aminosalicylate], for which the cell viability came to 91.4%.

As for `CC(C)C(=O)c1c(C(C)C)nn2ccccc12` [Ibudilast], the cell viability worked out at 94.2%.

With `CC(=O)NC(CC(C)C)C(=O)O` (centres undefined) [Acetylleucine], the cell viability is 94.5%.

Turning to `CCS(=O)(=O)N1CCN(c2ccc(Nc3ncc(C(N)=O)c(NC4CC4)n3)cc2)CC1`, the cell viability was 80.5%.

Consider `C[N+](C)(C)C[C@H](O)CC(=O)[O-]` [L-carnitine], for which the cell viability was found to be 93%.

Consider `OC(CCN1CCCC1)(c1ccccc1)C1CCCCC1` (centres undefined) [Procyclidine HCl], for which the cell viability amounted to 87.2%.

`CC(CN(C)C)CN1c2ccccc2CCc2ccccc21` (centres undefined) [Trimipramine Maleate]: the cell viability turned out to be 84.5%.

For the compound `CCCCOc1ccc(C(=O)CCN2CCCCC2)cc1` [Dyclonine HCl], the cell viability worked out at 98.3%.

As to `Cn1nnc2c(C(N)=O)ncn2c1=O` [Temozolomide], the cell viability worked out at 97.8%.

In the case of `CC(C)(C)NC(=O)[C@H]1CC[C@H]2[C@@H]3CC[C@H]4NC(=O)C=C[C@]4(C)[C@H]3CC[C@]12C` [Finasteride], the cell viability was 77.1%.

In the case of `C=CC[N+]1([C@H]2C[C@H]3[C@@H]4CC[C@H]5C[C@H](O)[C@@H](N6CCOCC6)C[C@]5(C)[C@H]4CC[C@]3(C)[C@H]2OC(C)=O)CCCC1` [Rocuronium Bromide], the cell viability came to 102%.

Turning to `C=C1CC[C@H](O)C/C1=C/C=C1\CCC[C@]2(C)[C@@H]([C@H](C)/C=C/[C@H](C)C(C)C)CC[C@@H]12` [Vitamin D2], the cell viability came out at 73.9%.

Regarding `Nc1nc(N)c2nc(-c3ccccc3)c(N)nc2n1` [Triamterene], the cell viability was 94.7%.

As for `Cc1c(Nc2ncccc2C(=O)O)cccc1C(F)(F)F` [Flunixin Meglumin], the cell viability is 85.5%.

For `CC[C@H](c1ccc(O)cc1)[C@@H](CC)c1ccc(O)cc1` [Hexestrol], the cell viability worked out at 93.7%.

For `OC[C@@H](O)CN1CCN(c2ccccc2)CC1` [Levodropropizine], the cell viability came to 95.7%.

For the compound `N#CC1(c2ccc(NC(=O)c3cccnc3NCc3ccncc3)cc2)CCCC1`, the cell viability stood at 83%.

In the case of `CC(=O)OCC(=O)[C@@]1(O)CC[C@H]2[C@@H]3CCC4=CC(=O)C=C[C@]4(C)[C@H]3[C@@H](O)C[C@@]21C` [Prednisolone Acetate], the cell viability is 77.3%.

Consider `COC(=O)N[C@H](C(=O)N1CC2(CC2)C[C@H]1c1nc(-c2ccc3c(c2)C(F)(F)c2cc(-c4ccc5[nH]c([C@@H]6[C@H]7CC[C@H](C7)N6C(=O)[C@@H](NC(=O)OC)C(C)C)nc5c4)ccc2-3)c[nH]1)C(C)C` [Ledipasvir (GS5885)], for which the cell viability came out at 76.9%.

For the compound `COc1ccc(CNc2nc(N3CCC[C@H]3CO)ncc2C(=O)NCc2ncccn2)cc1Cl` [Avanafil], the cell viability worked out at 96.4%.

With `CN(Cc1cc(Br)cc(Br)c1N)C1CCCCC1` [Bromhexine HCl], the cell viability was 92%.

With `NCCc1ccc(O)c(O)c1` [Dopamine HCl], the cell viability came out at 118%.

On to `COc1ccc(-c2ccc3cc(C(=O)O)ccc3c2)cc1C12CC3CC(CC(C3)C1)C2` [Adapalene], for which the cell viability was 38.1%.

With `CCN1CCCC1CNC(=O)c1cc(S(N)(=O)=O)ccc1OC` (centres undefined) [Sulpiride], the cell viability came to 90.6%.

As for `CCCCc1oc2ccccc2c1C(=O)c1cc(I)c(OCCN(CC)CC)c(I)c1` [Amiodarone HCl], the cell viability came out at 97.7%.

Consider `Cc1cnc(C(=O)N[C@H]2CCCCC/C=C\[C@@H]3C[C@@]3(C(=O)NS(=O)(=O)C3CC3)NC(=O)[C@@H]3C[C@@H](Oc4nc5ccccc5c5ccccc45)CN3C2=O)cn1` [Paritaprevir (ABT-450)], for which the cell viability worked out at 106%.

Regarding `O=C(O)c1cccnc1` [Nicotinic Acid], the cell viability came out at 99.8%.

Regarding `Cc1cccc(N(C)C(=S)Oc2ccc3ccccc3c2)c1` [Tolnaftate], the cell viability is 82.6%.

As to `C=CCNC1=C2C[C@@H](C)C[C@H](OC)[C@H](O)[C@@H](C)/C=C(\C)[C@H](OC(N)=O)[C@@H](OC)/C=C\C=C(/C)C(=O)NC(=CC1=O)C2=O` [Tanespimycin (17-AAG)], the cell viability was 57%.

On to `CN1CCN(c2ccc3nc(-c4c(N)c5c(F)cccc5[nH]c4=O)[nH]c3c2)CC1` [Dovitinib (TKI-258, CHIR-258)], for which the cell viability turned out to be 72.8%.

For `CN1CCN(c2ccc3nc(-c4c(N)c5c(F)cccc5[nH]c4=O)[nH]c3c2)CC1` [Dovitinib (TKI258) Lactate], the cell viability was 65.5%.

As for `O=c1[nH]c(=O)n([C@H]2C[C@H](O)[C@@H](CO)O2)cc1I` [Idoxuridine], the cell viability was 86.1%.

In the case of `C[C@H]1C[C@H]2[C@@H]3CCC4=CC(=O)C=C[C@]4(C)[C@H]3C(=O)C[C@]2(C)[C@@]1(O)C(=O)CO` [Meprednisone], the cell viability turned out to be 93.3%.

On to `CCC(=O)OCC(=O)[C@@]1(OC(=O)CC)[C@@H](C)C[C@H]2[C@@H]3CCC4=CC(=O)C=C[C@]4(C)[C@@]3(F)[C@@H](O)C[C@@]21C` [Betamethasone Dipropionate], for which the cell viability worked out at 79.3%.

Turning to `O=C(O)CCCN1CCC(O[C@@H](c2ccc(Cl)cc2)c2ccccn2)CC1` [Bepotastine Besilate], the cell viability worked out at 92.9%.

For the compound `NNC(=O)c1ccncc1` [Isoniazid], the cell viability came to 108%.

On to `CN1CCCN=C1/C=C/c1cccs1` [Pyrantel Pamoate], for which the cell viability worked out at 99%.

Regarding `CO[C@H]1C[C@@H]2CC[C@@H](C)[C@@](O)(O2)C(=O)C(=O)N2CCCC[C@H]2C(=O)O[C@H]([C@H](C)C[C@@H]2CC[C@@H](OC(=O)C(C)(CO)CO)[C@H](OC)C2)CC(=O)[C@H](C)/C=C(\C)[C@@H](O)[C@@H](OC)C(=O)[C@H](C)C[C@H](C)/C=C/C=C/C=C/1C`, the cell viability was 71%.

`CCC[C@@H]1C[C@@H](C(=O)N[C@@H]([C@H]2O[C@H](SC)[C@H](O)[C@@H](O)[C@H]2O)[C@@H](C)O)N(C)C1` [Lincomycin HCl]: the cell viability is 87.9%.

For `CCC[C@@H]1C[C@@H](C(=O)N[C@@H]([C@H]2O[C@H](SC)[C@H](O)[C@@H](O)[C@H]2O)[C@@H](C)O)N(C)C1` [Lincomycin Hydrochloride Monohydrate], the cell viability came out at 86.7%.
